Laboratory results: paper PMC2660581
Read-outs that look alike come from different tables or passages of the source. These are yes or no findings as the source states them, for the method shown. Some binding calls cover weakened binding; strength is not graded here.

By UniProt entry, the sequences of proteins in these tests, tags left out. Where a name states a change or a piece, a line headed by the entry shows the natural chain unless it says otherwise. Chains listed by the source or under a name are the forms on record and can include a tag or linker. Residues count along the entry.
NOD2 CARD (1+2) (Q9HC29, residues 1-267): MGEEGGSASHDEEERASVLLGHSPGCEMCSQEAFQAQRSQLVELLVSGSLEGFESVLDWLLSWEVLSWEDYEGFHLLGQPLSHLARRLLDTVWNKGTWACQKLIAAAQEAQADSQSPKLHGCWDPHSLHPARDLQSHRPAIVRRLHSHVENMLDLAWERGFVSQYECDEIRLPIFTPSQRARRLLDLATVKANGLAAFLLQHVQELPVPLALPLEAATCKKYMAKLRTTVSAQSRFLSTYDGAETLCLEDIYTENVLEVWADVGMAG
NOD2 CARD (1) (Q9HC29, residues 1-116): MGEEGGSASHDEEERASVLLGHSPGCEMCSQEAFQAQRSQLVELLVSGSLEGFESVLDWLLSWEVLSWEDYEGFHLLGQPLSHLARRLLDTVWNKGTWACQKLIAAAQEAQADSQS
NOD2 CARD (2) (Q9HC29, residues 135-255): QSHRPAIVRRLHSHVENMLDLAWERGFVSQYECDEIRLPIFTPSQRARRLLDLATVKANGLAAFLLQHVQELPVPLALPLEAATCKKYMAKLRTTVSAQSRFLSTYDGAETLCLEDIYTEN
NOD2 CARD (1+2) D70K (Q9HC29, form named): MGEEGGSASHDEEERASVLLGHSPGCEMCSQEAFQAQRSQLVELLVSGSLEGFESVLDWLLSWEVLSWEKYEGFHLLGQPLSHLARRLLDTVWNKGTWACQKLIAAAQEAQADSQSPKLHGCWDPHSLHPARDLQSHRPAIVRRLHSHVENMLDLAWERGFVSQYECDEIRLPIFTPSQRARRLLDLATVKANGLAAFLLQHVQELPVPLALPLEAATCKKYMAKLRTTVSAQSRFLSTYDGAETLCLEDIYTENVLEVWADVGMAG
NOD2 CARD (1+2) E69K (Q9HC29, form named): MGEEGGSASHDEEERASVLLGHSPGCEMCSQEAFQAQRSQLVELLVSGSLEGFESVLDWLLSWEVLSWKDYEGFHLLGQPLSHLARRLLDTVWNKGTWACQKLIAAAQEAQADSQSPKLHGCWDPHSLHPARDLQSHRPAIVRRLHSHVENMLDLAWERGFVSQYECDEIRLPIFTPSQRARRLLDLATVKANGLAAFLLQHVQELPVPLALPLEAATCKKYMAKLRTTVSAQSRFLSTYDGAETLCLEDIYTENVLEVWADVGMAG
NOD2 CARD (1+2) R132Q (Q9HC29, form named): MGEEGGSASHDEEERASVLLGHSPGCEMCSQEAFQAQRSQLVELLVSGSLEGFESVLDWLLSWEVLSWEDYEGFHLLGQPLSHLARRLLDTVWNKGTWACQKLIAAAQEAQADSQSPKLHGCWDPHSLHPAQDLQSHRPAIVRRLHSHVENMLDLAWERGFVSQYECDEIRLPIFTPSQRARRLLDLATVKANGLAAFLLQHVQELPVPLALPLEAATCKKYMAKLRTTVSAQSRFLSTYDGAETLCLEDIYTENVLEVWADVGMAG
UniProt Q9ULZ3: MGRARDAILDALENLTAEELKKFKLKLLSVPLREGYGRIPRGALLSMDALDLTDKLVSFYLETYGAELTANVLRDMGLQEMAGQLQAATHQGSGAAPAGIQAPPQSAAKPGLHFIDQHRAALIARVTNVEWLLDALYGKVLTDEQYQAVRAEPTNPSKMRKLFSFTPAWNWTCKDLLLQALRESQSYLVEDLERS
UniProt Q96P20, residues 1-189: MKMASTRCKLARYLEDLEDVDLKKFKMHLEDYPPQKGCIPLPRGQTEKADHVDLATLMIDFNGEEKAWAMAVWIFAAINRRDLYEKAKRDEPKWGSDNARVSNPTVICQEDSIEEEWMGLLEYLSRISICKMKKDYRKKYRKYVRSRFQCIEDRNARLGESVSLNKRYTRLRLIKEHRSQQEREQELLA
UniProt P55211, residues 1-97: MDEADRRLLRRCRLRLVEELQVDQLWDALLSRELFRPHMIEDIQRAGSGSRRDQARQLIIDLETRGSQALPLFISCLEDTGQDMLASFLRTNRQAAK

Experiments:
Assay in all cases: two-hybrid; … GAL4 Two-Hybrid System 3, S. cerevisiae AH109 co-transformed with pGBKT7 and pGADT7 fusions; growth on SD/-Ade/-His/-Leu/-Trp, 4 days at 30°C; “each against all” screen (26×26) and later tests with refined constructs
NLRP1 CARD [1] = molecular target: T1, NLRP1 CARD (UniProt Q9C000)
T1 sequence: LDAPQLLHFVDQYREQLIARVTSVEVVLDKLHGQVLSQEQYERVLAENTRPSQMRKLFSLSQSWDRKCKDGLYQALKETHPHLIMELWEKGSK

NLRP1 PYD = molecular target: T2, NLRP1 PYD (UniProt Q9C000)
T2 sequence: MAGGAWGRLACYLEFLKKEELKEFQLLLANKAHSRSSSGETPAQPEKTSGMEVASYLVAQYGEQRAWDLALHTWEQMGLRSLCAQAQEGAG

NLRP12 PYD = molecular target: T3, NLRP12 PYD (UniProt P59046)
T3 sequence: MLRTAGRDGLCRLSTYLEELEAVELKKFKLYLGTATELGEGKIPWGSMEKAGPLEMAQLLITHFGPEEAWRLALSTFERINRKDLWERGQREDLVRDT

NLRC4 CARD [2] = molecular target: T4, NLRC4 CARD (UniProt Q9NPP4)
T4 sequence: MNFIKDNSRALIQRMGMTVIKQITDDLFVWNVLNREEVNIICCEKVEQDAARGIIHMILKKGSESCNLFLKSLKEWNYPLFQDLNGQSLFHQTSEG

NOD1 CARD (1–110) [3] = molecular target: T5, NOD1 CARD (1–110) (UniProt Q9Y239)
T5 sequence: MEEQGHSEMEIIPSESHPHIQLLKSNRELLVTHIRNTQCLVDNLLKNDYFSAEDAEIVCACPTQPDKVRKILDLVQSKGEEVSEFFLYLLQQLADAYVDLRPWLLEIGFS

NOD1 CARD (16–108) [4] = molecular target: T6, NOD1 CARD (16–108) (UniProt Q9Y239)
T6 sequence: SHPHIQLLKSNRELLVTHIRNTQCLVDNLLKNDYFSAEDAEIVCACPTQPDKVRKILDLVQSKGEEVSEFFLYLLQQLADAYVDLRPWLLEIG

NOD2 CARD (1) (human) [5] = molecular target: NOD2 CARD (1) (human) (UniProt Q9HC29)
NOD2 CARD (1+2) (human) [6] = molecular target: NOD2 CARD (1+2) (human) (UniProt Q9HC29)
NOD2 CARD (2) (human) [7] = molecular target: NOD2 CARD (2) (human) (UniProt Q9HC29)
NOD1 CARD (1–110) [8] = molecular target: T5, NOD1 CARD (1–110); remark: listed apart in the source
NOD2 CARD (1) (human) [9] = molecular target: NOD2 CARD (1) (human) (UniProt Q9HC29); remark: listed apart in the source
NOD2 CARD (1+2) (human) [10] = molecular target: NOD2 CARD (1+2) (human) (UniProt Q9HC29); remark: listed apart in the source
[11] = molecular target: NOD2 CARD (1+2) D70K (human) (UniProt Q9HC29)
[12] = molecular target: NOD2 CARD (1+2) E69K (human) (UniProt Q9HC29)
[13] = molecular target: NOD2 CARD (1+2) R132Q (human) (UniProt Q9HC29)
NOD2 CARD (2) (human) [14] = molecular target: NOD2 CARD (2) (human) (UniProt Q9HC29); remark: listed apart in the source
NLRC4 CARD [15] = molecular target: T4, NLRC4 CARD; remark: listed apart in the source
NOD1 CARD (16–108) [16] = molecular target: T6, NOD1 CARD (16–108); remark: listed apart in the source
NLRP1 CARD [17] = molecular target: T1, NLRP1 CARD; remark: listed apart in the source

Molecule: ASC full length (from UniProt Q9ULZ3 1-195)
- binding (NLRP1 CARD [1]): no binding
- binding (NLRP1 PYD): no binding
- binding (NLRP12 PYD): no binding

Molecule: ASC CARD (from UniProt Q9ULZ3 105-195) (domain or fragment)
- binding (NLRC4 CARD [2]): binds
- binding (NLRP1 CARD [1]): no binding
- binding (NLRP1 PYD): no binding
- binding (NLRP12 PYD): no binding

Molecule: NLRP3 PYD+linker (from UniProt Q96P20 1-189) (domain or fragment)
- binding (NLRC4 CARD [2]): no binding
- binding (NOD1 CARD (1–110) [3]): no binding

Molecule: CASP9 CARD (from UniProt P55211 1-97) (domain or fragment)
- binding (NLRP1 CARD [1]): no binding
- binding (NLRP1 PYD): no binding
- binding (NOD1 CARD (16–108) [4]): no binding
- binding (NOD1 CARD (1–110) [3]): no binding
- binding (NOD2 CARD (1) (human) [5]): no binding
- binding (NOD2 CARD (1+2) (human) [6]): no binding
- binding (NOD2 CARD (2) (human) [7]): no binding

B1: NLRP12, PYD+linker (domain or fragment, UniProt P59046 1-224)
chain: MLRTAGRDGLCRLSTYLEELEAVELKKFKLYLGTATELGEGKIPWGSMEKAGPLEMAQLLITHFGPEEAWRLALSTFERINRKDLWERGQREDLVRDTPPGGPSSLGNQSTCLLEVSLVTPRKDPQETYRDYVRRKFRLMEDRNARLGECVNLSHRYTRLLLVKEHSNPMQVQQQLLDTGRGHARTVGHQASPIKIETLFEPDEERPEPPRTVVMQGAAGIGKS
- binding (NOD1 CARD (1–110) [8]): no binding
- binding (NOD2 CARD (1) (human) [9]): no binding
- binding (NOD2 CARD (1+2) (human) [10]): binds
- binding [11]: no binding
- binding [12]: binds
- binding [13]: binds
- binding (NOD2 CARD (2) (human) [14]): no binding

B2: NLRC4 CARD (domain or fragment, UniProt Q9NPP4 1-96)
chain: T4 sequence
- binding (NLRC4 CARD [15]): no binding
- binding (NOD1 CARD (16–108) [16]): no binding
- binding (NOD1 CARD (1–110) [8]): no binding
- binding (NOD2 CARD (1) (human) [9]): no binding
- binding (NOD2 CARD (1+2) (human) [10]): no binding
- binding (NOD2 CARD (2) (human) [14]): no binding

B3: NLRP2, PYD+linker (domain or fragment, UniProt Q9NX02 1-220)
chain: MVSSAQMGFNLQALLEQLSQDELSKFKYLITTFSLAHELQKIPHKEVDKADGKQLVEILTTHCDSYWVEMASLQVFEKMHRMDLSERAKDEVREAALKSFNKRKPLSLGITRKERPPLDVDEMLERFKTEAQAFTETKGNVICLGKEVFKGKKPDKDNRCRYILKTKFREMWKSWPGDSKEVQVMAERYKMLIPFSNPRVLPGPFSYTVVLYGPAGLGKT
- binding (NOD2 CARD (1+2) (human) [10]): no binding

B4: NLRP7, PYD+linker (domain or fragment, UniProt Q8WX94 1-185)
chain: MTSPQLEWTLQTLLEQLNEDELKSFKSLLWAFPLEDVLQKTPWSEVEEADGKKLAEILVNTSSENWIRNATVNILEEMNLTELCKMAKAEMMEDGQVQEIDNPELGDAEEDSELAKPGEKEGWRNSMEKQSLVWKNTFWQGDIDNFHDDVTLRNQRFIPFLNPRTPRKLTPYTVVLHGPAGVGKT
- binding (NOD2 CARD (1+2) (human) [10]): no binding

B5: NLRP10, PYD+linker (domain or fragment, UniProt Q86W26 1-180)
chain: MAMAKARKPREALLWALSDLEENDFKKLKFYLRDMTLSEGQPPLARGELEGLIPVDLAELLISKYGEKEAVKVVLKGLKVMNLLELVDQLSHICLHDYREVYREHVRCLEEWQEAGVNGRYNQVLLVAKPSSESPESLACPFPEQELESVTVEALFDSGEKPSLAPSLVVLQGSAGTGKT
- binding (NOD2 CARD (1+2) (human) [10]): no binding

B6: NLRP11, PYD+linker (domain or fragment, UniProt P59045 1-160)
chain: MAESDSTDFDLLWYLENLSDKEFQSFKKYLARKILDFKLPQFPLIQMTKEELANVLPISYEGQYIWNMLFSIFSMMRKEDLCRKIIGRRNRNQEACKAVMRRKFMLQWESHTFGKFHYKFFRDVSSDVFYILQLAYDSTSYYSANNLNVFLMGERASGKT
- binding (NOD2 CARD (1+2) (human) [10]): no binding

B7: NLRP1 CARD (domain or fragment, UniProt Q9C000 1373-1465)
chain: T1 sequence
- binding (NLRC4 CARD [15]): no binding
- binding (NLRP1 CARD [17]): no binding
- binding (NOD1 CARD (16–108) [16]): no binding
- binding (NOD1 CARD (1–110) [8]): no binding

B8: NOD1 CARD (1–110) (domain or fragment, UniProt Q9Y239 1-110)
chain: T5 sequence
- binding (NOD1 CARD (1–110) [8]): no binding

B9: NOD1 CARD (16–108) (domain or fragment, UniProt Q9Y239 16-108)
chain: T6 sequence
- binding (NOD1 CARD (16–108) [16]): no binding
- binding (NOD1 CARD (1–110) [8]): no binding
